In the supplement of paper PMC7024190:
This is one part of the list. Repeats in this data set agree poorly, so a single value says little.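 A first-round screen of about ten thousand compounds sought those raising reporter output, using human embryonic kidney cells briefly transfected with a plasmid carrying a Renilla luciferase gene driven by the HSV-TK promoter.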

Each molecule was assayed on HEK 293FT (assay: log relative Renilla luciferase luminescence (reporter expression vs reference, reference not stated) (log (base not stated)); higher = higher recombinant reporter expression). Conditions: 10 µM; time after transfection 48 h.
Description: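 HEK 293FT cells transiently transfected with pRL-TK (Renilla luciferase) were treated with compounds at 10 uM and luminescence was read about 42 h later. Values are log relative Renilla luminescence (log base and reference not stated). Single-pass screen; 2080 natural products library.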

Row | SMILES | log
1 | O=C(O)/C=C/c1ccc(O)cc1 [trans-4-Hydroxycinnamic acid] | 0.107
2 | O=C(O)c1c[nH]c2ccccc12 [1H-Indole-3-carboxylic acid] | -0.121
3 | C[C@@H]1[C@H]2[C@H](O[C@@H]3O[C@H](CO)[C@@H](O)[C@H](O)[C@H]3O)OC=C(C(=O)O)[C@H]2C[C@@H]1O [Loganic acid] | 0.0322
4 | Cc1cc(OC(=O)c2c(C)cc(O)cc2O)cc(O)c1C(=O)O [Lecanoric acid] | 0.0487
5 | CC(C)=CCC/C(C)=C/COc1c2occc2cc2ccc(=O)oc12 [8-Geranyloxypsoralen] | -0.0581
6 | CC[C@H](CC[C@@H](C)[C@H]1CC[C@H]2[C@@H]3CC=C4C[C@@H](O[C@@H]5O[C@H](CO)[C@@H](O)[C@H](O)[C@H]5O)CC[C@]4(C)[C@H]3CC[C@]12C)C(C)C [Daucosterol] | 0.0497
7 | COc1ccc2ccc(=O)oc2c1C[C@H](O)C(C)(C)O [Meranzin hydrate] | -0.0849
8 | Cc1cc2c(cc1O)C13CCCC(C)(C)C1CC2OC3 (stereo not given) [Przewalskin] | -0.179
9 | C[C@@H]1C[C@H]2O[C@@]3(O[C@@H]2C(C)(C)O)[C@H](O)[C@@]2(C)[C@@H]4CC[C@H]5C(C)(C)[C@@H](O[C@@H]6OC[C@H](O)[C@H](O)[C@H]6O)CC[C@@]56C[C@@]46CC[C@]2(C)[C@@H]13 [Cimiracemoside C] | 0.0541
10 | CC(=O)CC[C@@H]1[C@H]([C@H]2C(=O)CC[C@]2(C)C(CC(C)C)c2c(O)c(C=O)c(O)c(C=O)c2O)C1(C)C (stereo not given in full) [Eucalyptone] | -0.204
